Drawing on publication doi:10.1101/458489, this text covers binding for three molecules.

Chains of the proteins cited; added tags and fusions are not shown. Residues count along the entry.
UniProt P06241: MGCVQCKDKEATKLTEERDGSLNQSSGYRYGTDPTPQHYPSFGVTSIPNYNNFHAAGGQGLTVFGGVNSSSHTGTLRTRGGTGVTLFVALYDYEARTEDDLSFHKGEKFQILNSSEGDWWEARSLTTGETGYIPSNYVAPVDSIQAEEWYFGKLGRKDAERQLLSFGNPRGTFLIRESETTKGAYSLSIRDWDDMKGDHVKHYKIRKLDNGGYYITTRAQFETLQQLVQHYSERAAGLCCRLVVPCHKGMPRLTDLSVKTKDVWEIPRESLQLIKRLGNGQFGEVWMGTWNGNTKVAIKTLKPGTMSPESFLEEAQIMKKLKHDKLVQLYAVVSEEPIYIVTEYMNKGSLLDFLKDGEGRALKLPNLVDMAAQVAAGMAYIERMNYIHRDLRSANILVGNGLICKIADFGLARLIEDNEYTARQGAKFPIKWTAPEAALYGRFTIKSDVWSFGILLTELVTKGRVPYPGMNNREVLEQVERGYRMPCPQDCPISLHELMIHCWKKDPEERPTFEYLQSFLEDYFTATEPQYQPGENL
UniProt P10586, residues 30-1907: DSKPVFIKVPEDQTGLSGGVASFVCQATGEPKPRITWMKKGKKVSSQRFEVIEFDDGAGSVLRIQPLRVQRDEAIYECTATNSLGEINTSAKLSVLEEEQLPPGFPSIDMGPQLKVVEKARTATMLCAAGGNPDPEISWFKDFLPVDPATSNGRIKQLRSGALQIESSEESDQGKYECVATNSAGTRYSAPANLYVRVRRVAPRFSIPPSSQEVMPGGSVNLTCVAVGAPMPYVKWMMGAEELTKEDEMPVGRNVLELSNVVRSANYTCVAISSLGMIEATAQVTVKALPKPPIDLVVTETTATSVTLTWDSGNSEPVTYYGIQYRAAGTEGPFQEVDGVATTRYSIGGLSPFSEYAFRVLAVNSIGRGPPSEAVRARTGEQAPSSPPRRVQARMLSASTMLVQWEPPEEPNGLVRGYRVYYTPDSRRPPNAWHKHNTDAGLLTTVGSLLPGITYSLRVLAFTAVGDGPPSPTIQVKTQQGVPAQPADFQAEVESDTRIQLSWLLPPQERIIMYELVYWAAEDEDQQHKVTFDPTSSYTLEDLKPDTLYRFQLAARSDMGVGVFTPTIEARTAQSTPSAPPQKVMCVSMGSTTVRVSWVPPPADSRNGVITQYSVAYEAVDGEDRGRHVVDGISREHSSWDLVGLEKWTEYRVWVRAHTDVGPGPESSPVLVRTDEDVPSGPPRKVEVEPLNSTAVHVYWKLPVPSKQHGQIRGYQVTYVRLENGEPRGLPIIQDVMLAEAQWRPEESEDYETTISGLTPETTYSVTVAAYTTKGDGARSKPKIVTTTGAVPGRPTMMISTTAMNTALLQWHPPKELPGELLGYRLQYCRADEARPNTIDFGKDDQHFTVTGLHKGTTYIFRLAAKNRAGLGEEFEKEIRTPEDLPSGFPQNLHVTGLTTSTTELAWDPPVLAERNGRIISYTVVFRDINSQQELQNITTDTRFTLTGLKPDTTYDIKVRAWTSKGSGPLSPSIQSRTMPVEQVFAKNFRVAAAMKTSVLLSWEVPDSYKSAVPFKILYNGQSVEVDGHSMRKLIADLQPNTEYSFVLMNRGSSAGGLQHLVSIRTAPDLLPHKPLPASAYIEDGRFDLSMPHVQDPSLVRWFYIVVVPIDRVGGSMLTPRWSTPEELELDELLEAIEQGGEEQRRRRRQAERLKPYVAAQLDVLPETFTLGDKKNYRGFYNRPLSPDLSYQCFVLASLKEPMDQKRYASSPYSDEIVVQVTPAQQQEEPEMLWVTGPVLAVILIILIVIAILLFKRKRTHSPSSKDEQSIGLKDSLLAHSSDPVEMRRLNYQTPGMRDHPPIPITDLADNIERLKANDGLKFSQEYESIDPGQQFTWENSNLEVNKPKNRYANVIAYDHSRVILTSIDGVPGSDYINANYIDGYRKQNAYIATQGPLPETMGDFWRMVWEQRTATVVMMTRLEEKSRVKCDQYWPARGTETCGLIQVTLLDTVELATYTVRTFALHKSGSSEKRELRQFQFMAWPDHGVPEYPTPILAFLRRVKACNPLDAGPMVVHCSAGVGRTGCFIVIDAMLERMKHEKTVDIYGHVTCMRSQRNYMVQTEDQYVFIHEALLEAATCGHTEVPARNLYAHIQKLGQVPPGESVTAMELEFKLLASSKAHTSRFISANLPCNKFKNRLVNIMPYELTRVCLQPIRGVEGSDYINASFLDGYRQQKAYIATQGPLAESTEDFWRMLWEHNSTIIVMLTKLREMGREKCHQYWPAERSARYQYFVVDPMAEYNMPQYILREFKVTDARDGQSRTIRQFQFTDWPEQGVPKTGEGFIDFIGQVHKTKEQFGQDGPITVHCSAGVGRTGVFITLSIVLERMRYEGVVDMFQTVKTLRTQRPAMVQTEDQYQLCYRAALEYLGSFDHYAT
UniProt P08575, residues 26-1306: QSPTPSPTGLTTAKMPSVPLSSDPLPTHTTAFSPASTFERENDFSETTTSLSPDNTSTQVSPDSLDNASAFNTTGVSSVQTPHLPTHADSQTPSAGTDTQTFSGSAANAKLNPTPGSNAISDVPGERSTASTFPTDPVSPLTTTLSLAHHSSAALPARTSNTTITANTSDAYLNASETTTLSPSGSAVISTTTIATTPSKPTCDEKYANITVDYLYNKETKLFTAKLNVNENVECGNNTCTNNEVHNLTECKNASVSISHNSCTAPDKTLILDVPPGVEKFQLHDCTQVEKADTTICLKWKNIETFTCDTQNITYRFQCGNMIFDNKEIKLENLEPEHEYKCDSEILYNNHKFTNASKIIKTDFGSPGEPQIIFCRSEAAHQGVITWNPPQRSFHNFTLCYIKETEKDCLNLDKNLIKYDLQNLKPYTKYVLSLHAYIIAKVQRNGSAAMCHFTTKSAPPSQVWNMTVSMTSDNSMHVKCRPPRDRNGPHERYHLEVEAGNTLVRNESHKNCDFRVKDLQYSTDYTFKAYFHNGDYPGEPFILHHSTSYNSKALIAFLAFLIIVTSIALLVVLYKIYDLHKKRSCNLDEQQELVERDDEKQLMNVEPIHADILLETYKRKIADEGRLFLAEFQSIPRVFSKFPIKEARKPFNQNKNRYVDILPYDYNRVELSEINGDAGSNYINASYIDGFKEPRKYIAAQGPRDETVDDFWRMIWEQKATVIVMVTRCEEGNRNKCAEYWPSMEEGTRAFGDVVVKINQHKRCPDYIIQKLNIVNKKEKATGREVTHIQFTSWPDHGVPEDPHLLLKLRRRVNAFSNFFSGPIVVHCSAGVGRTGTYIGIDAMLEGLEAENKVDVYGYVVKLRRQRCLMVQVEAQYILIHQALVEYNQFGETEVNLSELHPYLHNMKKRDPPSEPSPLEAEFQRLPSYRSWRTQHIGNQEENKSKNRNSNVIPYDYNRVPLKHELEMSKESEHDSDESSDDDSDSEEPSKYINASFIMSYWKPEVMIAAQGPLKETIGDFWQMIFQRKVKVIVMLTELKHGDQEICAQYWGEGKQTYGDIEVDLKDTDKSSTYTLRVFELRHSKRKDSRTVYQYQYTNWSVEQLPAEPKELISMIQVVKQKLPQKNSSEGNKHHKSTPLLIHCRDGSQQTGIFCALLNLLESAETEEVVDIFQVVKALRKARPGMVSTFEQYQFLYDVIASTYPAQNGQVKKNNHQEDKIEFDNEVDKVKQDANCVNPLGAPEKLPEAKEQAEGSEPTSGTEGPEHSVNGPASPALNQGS

The target of assay [1] is FLAG-tagged Fyn (UniProt P06241). Kind of assay: affinity purification with mass spectrometry.
For assay [2] the target is unchanged. In words: condition: only control DMSO treated cells.
For assay [3] the target is unchanged. Kind of assay: condition: only cells treated with AMPK activator A769662.
The target is the same in assay [4]. In words: affinity purification with mass spectrometry. The source holds these as a separate data set.

These are yes or no findings as the source states them, for the method shown. Binding seen in cells or lysates may run through a third protein. These calls come from enrichment with a bait or labelling near it, and not all partners need be listed. For part of these data: A no says only that the protein was not detected with the bait.

For “PTPRF (from UniProt P10586 30-1907) (enzyme)”, the results for the binding entry with FLAG-tagged Fyn [1] and in the assay with FLAG-tagged Fyn [2] were “binds” and “no binding”, respectively.

In the case of “PTPRC (from UniProt P08575 26-1306) (enzyme)”, the values for the binding result in the assay with FLAG-tagged Fyn [1] and in the assay with FLAG-tagged Fyn [3] were “binds” and “no binding”, respectively.

B1: PTPN5 (enzyme, UniProt P54829 1-565)
chain: MNYEGARSERENHAADDSEGGALDMCCSERLPGLPQPIVMEALDEAEGLQDSQREMPPPPPPSPPSDPAQKPPPRGAGSHSLTVRSSLCLFAASQFLLACGVLWFSGYGHIWSQNATNLVSSLLTLLKQLEPTAWLDSGTWGVPSLLLVFLSVGLVLVTTLVWHLLRTPPEPPTPLPPEDRRQSVSRQPSFTYSEWMEEKIEDDFLDLDPVPETPVFDCVMDIKPEADPTSLTVKSMGLQERRGSNVSLTLDMCTPGCNEEGFGYLMSPREESAREYLLSASRVLQAEELHEKALDPFLLQAEFFEIPMNFVDPKEYDIPGLVRKNRYKTILPNPHSRVCLTSPDPDDPLSSYINANYIRGYGGEEKVYIATQGPIVSTVADFWRMVWQEHTPIIVMITNIEEMNEKCTEYWPEEQVAYDGVEITVQKVIHTEDYRLRLISLKSGTEERGLKHYWFTSWPDQKTPDRAPPLLHLVREVEEAAQQEGPHCAPIIVHCSAGIGRTGCFIATSICCQQLRQEGVVDILKTTCQLRQDRGGMIQTCEQYQFVHHVMSLYEKQLSHQSPE
B1: the binding result with FLAG-tagged Fyn [4] was “binds”; in the assay with FLAG-tagged Fyn [3], “no binding”.
